According to the supplement of paper PMC10849652:
This is one part of the list.

Amino acid sequences for entries named in this document (tags omitted). A change or cut given only in a name is not applied to a line headed by its entry.
UniProt O75528: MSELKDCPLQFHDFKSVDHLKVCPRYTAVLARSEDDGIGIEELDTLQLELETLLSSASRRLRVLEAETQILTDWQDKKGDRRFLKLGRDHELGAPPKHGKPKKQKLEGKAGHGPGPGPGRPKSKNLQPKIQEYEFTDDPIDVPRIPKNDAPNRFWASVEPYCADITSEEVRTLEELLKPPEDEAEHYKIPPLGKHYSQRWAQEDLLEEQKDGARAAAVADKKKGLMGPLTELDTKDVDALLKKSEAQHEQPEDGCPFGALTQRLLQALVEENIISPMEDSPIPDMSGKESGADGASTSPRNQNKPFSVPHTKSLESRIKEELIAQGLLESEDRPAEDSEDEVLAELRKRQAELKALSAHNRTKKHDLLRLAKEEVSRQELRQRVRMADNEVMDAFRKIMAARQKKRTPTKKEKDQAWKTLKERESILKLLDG
UniProt A2RTX5: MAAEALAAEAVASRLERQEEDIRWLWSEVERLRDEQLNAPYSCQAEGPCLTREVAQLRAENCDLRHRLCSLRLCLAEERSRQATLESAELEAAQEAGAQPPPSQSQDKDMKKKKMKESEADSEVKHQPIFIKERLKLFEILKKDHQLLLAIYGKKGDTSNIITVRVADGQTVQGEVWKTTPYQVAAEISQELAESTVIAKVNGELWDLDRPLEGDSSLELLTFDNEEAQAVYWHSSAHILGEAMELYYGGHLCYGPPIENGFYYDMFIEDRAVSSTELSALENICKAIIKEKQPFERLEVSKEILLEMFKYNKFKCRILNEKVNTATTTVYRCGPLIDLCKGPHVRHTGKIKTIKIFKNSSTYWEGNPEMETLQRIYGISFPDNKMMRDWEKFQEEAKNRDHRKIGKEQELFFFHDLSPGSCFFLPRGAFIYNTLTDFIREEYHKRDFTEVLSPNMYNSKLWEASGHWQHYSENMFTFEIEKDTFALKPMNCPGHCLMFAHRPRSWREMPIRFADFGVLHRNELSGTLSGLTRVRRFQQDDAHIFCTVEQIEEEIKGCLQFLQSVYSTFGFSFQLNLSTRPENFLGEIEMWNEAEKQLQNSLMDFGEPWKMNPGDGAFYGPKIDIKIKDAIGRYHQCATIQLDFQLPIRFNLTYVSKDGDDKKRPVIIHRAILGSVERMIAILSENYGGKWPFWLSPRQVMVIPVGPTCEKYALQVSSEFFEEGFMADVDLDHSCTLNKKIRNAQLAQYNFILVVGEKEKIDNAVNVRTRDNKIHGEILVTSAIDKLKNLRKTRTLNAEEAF
UniProt Q9P2W9: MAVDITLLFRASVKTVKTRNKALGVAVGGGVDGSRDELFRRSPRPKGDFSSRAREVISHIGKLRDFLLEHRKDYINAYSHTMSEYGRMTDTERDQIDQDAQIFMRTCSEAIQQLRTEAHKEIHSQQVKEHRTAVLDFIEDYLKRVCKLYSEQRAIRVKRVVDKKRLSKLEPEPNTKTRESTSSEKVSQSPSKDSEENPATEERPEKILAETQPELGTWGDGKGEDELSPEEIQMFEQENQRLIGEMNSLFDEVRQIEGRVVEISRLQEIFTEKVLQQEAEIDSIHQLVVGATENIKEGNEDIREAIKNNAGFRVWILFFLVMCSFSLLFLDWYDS
UniProt Q7RTN6: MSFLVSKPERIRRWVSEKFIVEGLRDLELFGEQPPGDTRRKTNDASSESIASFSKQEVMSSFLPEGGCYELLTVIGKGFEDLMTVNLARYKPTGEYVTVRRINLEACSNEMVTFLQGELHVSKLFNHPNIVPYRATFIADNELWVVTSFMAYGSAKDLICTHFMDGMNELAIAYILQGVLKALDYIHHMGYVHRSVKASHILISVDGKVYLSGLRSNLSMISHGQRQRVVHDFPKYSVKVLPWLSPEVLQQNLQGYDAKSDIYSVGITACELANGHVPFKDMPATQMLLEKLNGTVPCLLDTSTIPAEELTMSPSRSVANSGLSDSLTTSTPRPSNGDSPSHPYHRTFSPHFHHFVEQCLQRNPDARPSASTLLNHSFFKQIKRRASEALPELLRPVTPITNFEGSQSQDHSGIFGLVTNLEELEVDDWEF
UniProt Q9UMZ2: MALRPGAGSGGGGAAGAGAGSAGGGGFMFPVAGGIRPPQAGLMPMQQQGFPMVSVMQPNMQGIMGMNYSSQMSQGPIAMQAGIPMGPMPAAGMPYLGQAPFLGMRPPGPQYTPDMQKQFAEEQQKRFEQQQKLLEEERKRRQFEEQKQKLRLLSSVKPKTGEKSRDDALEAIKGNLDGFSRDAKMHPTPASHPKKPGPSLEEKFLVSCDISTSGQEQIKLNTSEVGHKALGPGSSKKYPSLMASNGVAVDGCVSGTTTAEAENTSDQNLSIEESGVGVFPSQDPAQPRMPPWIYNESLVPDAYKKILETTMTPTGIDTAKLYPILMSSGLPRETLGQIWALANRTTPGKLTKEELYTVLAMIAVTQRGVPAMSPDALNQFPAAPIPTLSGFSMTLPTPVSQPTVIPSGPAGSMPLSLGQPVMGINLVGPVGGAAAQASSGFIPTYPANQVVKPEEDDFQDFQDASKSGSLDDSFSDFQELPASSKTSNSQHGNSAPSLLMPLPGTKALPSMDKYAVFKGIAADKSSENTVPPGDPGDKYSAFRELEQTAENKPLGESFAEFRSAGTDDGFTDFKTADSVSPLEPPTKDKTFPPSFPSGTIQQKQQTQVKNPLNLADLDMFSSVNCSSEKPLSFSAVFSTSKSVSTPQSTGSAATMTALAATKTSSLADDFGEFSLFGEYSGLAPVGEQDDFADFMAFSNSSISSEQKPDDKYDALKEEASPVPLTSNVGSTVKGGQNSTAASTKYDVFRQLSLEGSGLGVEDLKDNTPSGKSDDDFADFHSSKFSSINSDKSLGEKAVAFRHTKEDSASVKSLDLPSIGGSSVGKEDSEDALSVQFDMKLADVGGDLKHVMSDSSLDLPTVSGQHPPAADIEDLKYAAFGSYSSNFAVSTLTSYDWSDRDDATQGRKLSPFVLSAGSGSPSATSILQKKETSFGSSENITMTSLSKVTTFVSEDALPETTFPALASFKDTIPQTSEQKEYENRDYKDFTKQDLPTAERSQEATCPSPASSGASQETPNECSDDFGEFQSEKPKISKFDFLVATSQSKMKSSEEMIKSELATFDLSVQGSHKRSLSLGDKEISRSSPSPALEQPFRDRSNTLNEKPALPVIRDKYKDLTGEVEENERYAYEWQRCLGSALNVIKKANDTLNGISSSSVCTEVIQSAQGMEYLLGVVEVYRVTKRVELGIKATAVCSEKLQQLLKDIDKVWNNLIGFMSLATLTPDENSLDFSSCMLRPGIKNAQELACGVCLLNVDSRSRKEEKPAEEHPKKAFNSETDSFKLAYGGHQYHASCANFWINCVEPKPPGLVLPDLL
UniProt Q9Y2Z0: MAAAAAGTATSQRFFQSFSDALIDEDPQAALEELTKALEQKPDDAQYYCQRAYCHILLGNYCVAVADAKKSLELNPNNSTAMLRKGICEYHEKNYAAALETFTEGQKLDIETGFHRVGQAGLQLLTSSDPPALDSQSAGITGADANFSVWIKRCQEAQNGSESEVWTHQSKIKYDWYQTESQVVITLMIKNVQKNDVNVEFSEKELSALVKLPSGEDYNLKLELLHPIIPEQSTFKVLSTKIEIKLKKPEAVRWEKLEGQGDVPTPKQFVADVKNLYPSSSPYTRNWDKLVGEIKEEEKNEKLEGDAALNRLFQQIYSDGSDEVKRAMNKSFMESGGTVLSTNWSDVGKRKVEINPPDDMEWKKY
UniProt Q86TM6, whole entry, looked up: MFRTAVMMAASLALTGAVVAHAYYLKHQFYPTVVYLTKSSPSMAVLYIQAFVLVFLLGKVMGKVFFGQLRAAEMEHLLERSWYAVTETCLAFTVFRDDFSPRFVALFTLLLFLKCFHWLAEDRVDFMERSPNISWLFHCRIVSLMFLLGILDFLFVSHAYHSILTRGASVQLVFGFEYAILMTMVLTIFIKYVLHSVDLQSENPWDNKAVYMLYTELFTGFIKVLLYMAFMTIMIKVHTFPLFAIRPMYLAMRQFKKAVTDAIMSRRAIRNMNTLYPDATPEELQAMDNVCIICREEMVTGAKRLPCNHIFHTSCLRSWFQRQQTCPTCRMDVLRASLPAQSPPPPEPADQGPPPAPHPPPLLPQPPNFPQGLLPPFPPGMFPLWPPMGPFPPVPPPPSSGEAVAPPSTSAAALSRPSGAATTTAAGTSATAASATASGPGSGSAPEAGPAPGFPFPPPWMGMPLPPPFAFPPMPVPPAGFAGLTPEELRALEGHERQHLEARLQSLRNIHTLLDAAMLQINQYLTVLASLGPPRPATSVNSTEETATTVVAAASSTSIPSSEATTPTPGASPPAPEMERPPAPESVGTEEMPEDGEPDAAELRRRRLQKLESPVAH
UniProt Q8TCJ2: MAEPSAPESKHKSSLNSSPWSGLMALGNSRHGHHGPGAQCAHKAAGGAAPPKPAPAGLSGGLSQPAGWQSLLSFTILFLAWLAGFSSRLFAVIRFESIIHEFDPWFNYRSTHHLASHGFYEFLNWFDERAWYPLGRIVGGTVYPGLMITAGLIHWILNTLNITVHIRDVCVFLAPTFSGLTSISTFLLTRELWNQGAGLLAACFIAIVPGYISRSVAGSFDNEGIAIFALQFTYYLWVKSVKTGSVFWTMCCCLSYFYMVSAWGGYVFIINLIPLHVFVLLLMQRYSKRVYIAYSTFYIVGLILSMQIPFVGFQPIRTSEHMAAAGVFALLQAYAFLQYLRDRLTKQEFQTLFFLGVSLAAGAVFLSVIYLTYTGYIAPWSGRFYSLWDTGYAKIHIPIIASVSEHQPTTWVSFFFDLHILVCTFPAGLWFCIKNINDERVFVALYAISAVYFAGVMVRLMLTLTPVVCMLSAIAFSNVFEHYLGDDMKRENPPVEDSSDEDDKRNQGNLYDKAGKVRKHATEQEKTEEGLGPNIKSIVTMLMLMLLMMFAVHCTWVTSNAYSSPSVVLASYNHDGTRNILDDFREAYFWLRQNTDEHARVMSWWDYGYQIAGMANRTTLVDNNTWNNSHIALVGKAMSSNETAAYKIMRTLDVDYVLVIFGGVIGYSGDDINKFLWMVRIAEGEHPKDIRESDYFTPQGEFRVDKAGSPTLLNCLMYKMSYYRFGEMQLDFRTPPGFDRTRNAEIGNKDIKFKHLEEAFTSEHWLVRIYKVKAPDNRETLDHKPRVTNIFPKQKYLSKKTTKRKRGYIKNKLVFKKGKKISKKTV
UniProt Q7Z422: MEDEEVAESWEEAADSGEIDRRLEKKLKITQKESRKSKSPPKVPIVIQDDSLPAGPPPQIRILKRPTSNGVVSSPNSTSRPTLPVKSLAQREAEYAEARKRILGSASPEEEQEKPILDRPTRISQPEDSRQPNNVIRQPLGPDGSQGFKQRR
UniProt O14662: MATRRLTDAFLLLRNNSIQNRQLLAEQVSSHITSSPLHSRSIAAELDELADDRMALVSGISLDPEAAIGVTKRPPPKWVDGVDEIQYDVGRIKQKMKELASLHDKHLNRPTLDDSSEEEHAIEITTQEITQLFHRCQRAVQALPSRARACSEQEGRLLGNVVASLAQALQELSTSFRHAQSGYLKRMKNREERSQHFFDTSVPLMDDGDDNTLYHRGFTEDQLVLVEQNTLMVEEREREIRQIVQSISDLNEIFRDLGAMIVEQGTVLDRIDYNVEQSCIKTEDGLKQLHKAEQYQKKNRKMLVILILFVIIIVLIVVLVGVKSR
UniProt Q7Z7C8, whole entry, looked up: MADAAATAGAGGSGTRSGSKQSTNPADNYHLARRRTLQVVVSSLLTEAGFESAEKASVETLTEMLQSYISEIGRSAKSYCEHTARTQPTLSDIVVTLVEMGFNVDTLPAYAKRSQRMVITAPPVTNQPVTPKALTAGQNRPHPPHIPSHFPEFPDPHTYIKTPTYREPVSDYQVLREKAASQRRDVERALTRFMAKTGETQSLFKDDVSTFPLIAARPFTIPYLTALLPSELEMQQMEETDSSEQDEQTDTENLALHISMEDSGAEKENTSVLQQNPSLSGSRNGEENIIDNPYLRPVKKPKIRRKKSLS
UniProt Q92804: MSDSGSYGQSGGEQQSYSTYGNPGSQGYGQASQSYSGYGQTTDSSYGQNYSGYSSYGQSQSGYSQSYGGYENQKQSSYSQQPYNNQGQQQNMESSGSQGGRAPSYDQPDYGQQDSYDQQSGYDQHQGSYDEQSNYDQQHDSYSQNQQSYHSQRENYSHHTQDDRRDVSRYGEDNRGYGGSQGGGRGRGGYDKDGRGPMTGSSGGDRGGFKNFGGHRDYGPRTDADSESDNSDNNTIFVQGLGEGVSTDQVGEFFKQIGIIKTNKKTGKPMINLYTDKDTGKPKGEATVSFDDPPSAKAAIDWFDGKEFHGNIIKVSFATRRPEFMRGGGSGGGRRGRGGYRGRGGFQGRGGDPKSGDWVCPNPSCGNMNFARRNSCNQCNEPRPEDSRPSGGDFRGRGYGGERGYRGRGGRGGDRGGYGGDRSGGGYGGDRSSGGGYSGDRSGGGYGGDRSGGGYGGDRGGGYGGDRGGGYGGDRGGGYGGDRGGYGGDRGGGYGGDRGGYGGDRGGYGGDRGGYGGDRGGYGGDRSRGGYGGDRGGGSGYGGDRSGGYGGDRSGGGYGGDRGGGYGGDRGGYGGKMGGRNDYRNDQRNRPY

What was measured:
Assay in all cases: log2 fold change, soluble protein after heating vs DMSO (PISA); higher = thermal stabilisation; K562 cells, 10 uM, 30 min; active = over 0.2 and 3.5 SD of the protein, either way, in both replicates (recomputed)
[1] = compound: CC[C@@H]1C(=O)N(C)c2cnc(Nc3ccc(C(=O)NC4CCN(C)CC4)cc3OC)nc2N1C1CCCC1
Method in brief: (§1)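 For each measurement, 10 μM compound was applied for 30 min to K562 cells at 2×10^6 cells/mL. Aliquots were heated for 3 min across 48°C-58°C, pooled, and extracted in PBS with 0.5% NP-40 at 4°C; the supernatant after 21,000xg for 90 min was soluble protein. This was quantified by TMTpro 16plex LC-MS/MS with channel sums equalised, and thermal stability was reported relative to control samples from duplicates, on a log2 fold-change scale.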

volasertib = compound: CC[C@@H]1C(=O)N(C)c2cnc(Nc3ccc(C(=O)N[C@H]4CC[C@H](N5CCN(CC6CC6)CC5)CC4)cc3OC)nc2N1C(C)C [volasertib]
Method in brief: as §1

[2] = compound: CC[C@H](C)N1C=C(C2=C(C=C(C=C21)C3=CN=C(C=C3)N4CCNCC4)C(=O)NCC5=C(C=C(NC5=O)C)C)C
Method in brief: as §1

epoxomicin = compound: CC[C@H](C)[C@@H](C(=O)N[C@@H]([C@@H](C)O)C(=O)N[C@@H](CC(C)C)C(=O)[C@]1(CO1)C)NC(=O)[C@H]([C@@H](C)CC)N(C)C(=O)C [epoxomicin]
Method in brief: as §1

[3] = compound: CCn1c(C(=O)N(C2CC2)C2CC2)cc2c3c(ncn3C)c(Nc3cc(C)n(C)n3)nc21
Method in brief: as §1

[4] = compound: CCn1cc(-c2ccnc3[nH]c(-c4cccc(CN(C)C)c4)cc23)c(-c2ccc(NC(=O)N(C)C)cc2)n1
Method in brief: as §1

[5] = compound: CN(C)CC(=O)Nc1ccc2[nH]c(=O)c3ccccc3c2c1
Method in brief: as §1

rosiglitazone = compound: CN(CCOC1=CC=C(C=C1)C[C@H]2C(=O)NC(=O)S2)C3=CC=CC=N3 (racemic) [rosiglitazone]
Method in brief: as §1

[6] = compound: CN1C2=C(C3=C1C(=O)N(N=C3)CC4=CC(=CC=C4)N)SC(=C2)S(=O)C
Method in brief: as §1

[7] = compound: CN1CCC(CNc2ccc3ncc(-c4cccc(OC(F)(F)F)c4)n3n2)CC1
Method in brief: as §1

saracatinib = compound: CN1CCN(CCOc2cc(OC3CCOCC3)c3c(Nc4c(Cl)ccc5c4OCO5)ncnc3c2)CC1 [saracatinib]
Method in brief: as §1

sotrastaurin = compound: CN1CCN(c2nc(C3=C(c4c[nH]c5ccccc45)C(=O)NC3=O)c3ccccc3n2)CC1 [sotrastaurin]
Method in brief: as §1

alvocidib = compound: CN1CC[C@H](c2c(O)cc(O)c3c(=O)cc(-c4ccccc4Cl)oc23)[C@H](O)C1 [alvocidib]
Method in brief: as §1

Tubastatin A = compound: CN1CCc2c(c3ccccc3n2Cc2ccc(C(=O)NO)cc2)C1 [Tubastatin A]
Method in brief: as §1

[8] = compound: CNC(=O)C1=CC=CC=C1NC2=NC(=NC=C2Cl)NC3=C(C=C(C=C3)N4CCOCC4)OC
Method in brief: as §1

defactinib = compound: CNC(=O)c1ccc(Nc2ncc(C(F)(F)F)c(NCc3nccnc3N(C)S(C)(=O)=O)n2)cc1 [defactinib]
Method in brief: as §1

rucaparib = compound: CNCc1ccc(-c2[nH]c3cc(F)cc4c3c2CCNC4=O)cc1 [rucaparib]
Method in brief: as §1

[9] = compound: CNc1nc(-c2ccc3c(N)n[nH]c3c2)cc(N2C[C@@H](C(=O)NC3CCCCC3)CC[C@H]2C)n1
Method in brief: as §1

encorafenib = compound: COC(=O)N[C@@H](C)CNc1nccc(-c2cn(C(C)C)nc2-c2cc(Cl)cc(NS(C)(=O)=O)c2F)n1 [encorafenib]
Method in brief: as §1

[10] = compound: COC(=O)[C@H](CCSC)NC(=O)C1=C(C=C(C=C1)NC[C@H](CS)N)C2=CC=CC=C2
Method in brief: as §1

Measured: log2 fold change

TADA3 (UniProt O75528)
inactive: [1] 0.033 | volasertib -0.037 | [2] 0.045 | epoxomicin -0.026 | [3] 0.048 | [4] 0.046 | [5] -0.027 | rosiglitazone 0.058 | [6] -0.025 | [7] -0.027 | saracatinib -0.026 | sotrastaurin -0.023 | alvocidib -0.071 | Tubastatin A 0 | [8] 0.062 | defactinib -0.038 | rucaparib -0.068 | [9] -0.048 | encorafenib -0.014 | [10] 0.047

TARSL2 (UniProt A2RTX5)
inactive: [1] -0.001 | volasertib -0.015 | [2] 0.001 | epoxomicin -0.012 | [3] 0.036 | [4] -0.077 | [5] 0.016 | rosiglitazone 0.023 | [6] -0.02 | [7] -0.157 | saracatinib -0.008 | sotrastaurin 0.002 | alvocidib -0.045 | Tubastatin A -0.003 | [8] -0.045 | defactinib -0.007 | rucaparib -0.023 | [9] 0.009 | encorafenib 0.037 | [10] 0.007

STX18 (UniProt Q9P2W9)
inactive: [1] -0.059 | volasertib -0.191 | [2] 0.073 | epoxomicin 0.043 | [3] -0.027 | [4] -0.061 | [5] 0.03 | rosiglitazone 0.059 | [6] -0.089 | [7] -0.131 | saracatinib -0.093 | sotrastaurin -0.094 | alvocidib -0.101 | Tubastatin A -0.003 | [8] -0.058 | defactinib -0.02 | rucaparib 0.043 | [9] -0.113 | encorafenib 0.049 | [10] 0.011

STRADA (UniProt Q7RTN6)
inactive: [1] 0.043 | volasertib 0.003 | [2] 0.003 | epoxomicin 0.099 | [3] 0.011 | [4] -0.083 | [5] -0.013 | rosiglitazone 0.01 | [6] -0.039 | [7] 0.09 | saracatinib 0.055 | sotrastaurin 0.039 | alvocidib 0.015 | Tubastatin A 0.03 | [8] -0.019 | defactinib -0.021 | rucaparib 0.031 | [9] -0.029 | encorafenib -0.007 | [10] 0.036

SYNRG (UniProt Q9UMZ2)
inactive: [1] -0.003 | volasertib -0.099 | [2] 0.043 | epoxomicin -0.025 | [3] 0.023 | [4] -0.05 | [5] -0.004 | rosiglitazone 0.061 | [6] -0.029 | [7] 0.009 | saracatinib -0.039 | sotrastaurin -0.083 | alvocidib -0.053 | Tubastatin A 0.002 | [8] 0.041 | defactinib -0.028 | rucaparib -0.017 | [9] -0.012 | encorafenib -0.001 | [10] 0.009

SUPT4H1 (UniProt P63272)
inactive: [1] -0.05 | volasertib -0.089 | [2] 0.093 | epoxomicin 0.059 | [3] -0.016 | [4] -0.134 | [5] 0.131 | rosiglitazone -0.037 | [6] 0.049 | [7] -0.175 | saracatinib -0.084 | sotrastaurin -0.034 | alvocidib -0.014 | Tubastatin A 0.049 | [8] -0.001 | defactinib -0.039 | rucaparib -0.01 | [9] -0.001 | encorafenib -0.052 | [10] -0.042

SUGT1 (UniProt Q9Y2Z0)
inactive: [1] -0.065 | volasertib -0.11 | [2] 0.013 | epoxomicin 0.041 | [3] -0.008 | [4] -0.033 | [5] -0.006 | rosiglitazone 0.024 | [6] -0.077 | [7] -0.041 | saracatinib 0.038 | sotrastaurin -0.014 | alvocidib -0.039 | Tubastatin A -0.014 | [8] 0.014 | defactinib -0.071 | rucaparib -0.063 | [9] -0.021 | encorafenib 0.01 | [10] -0.005

STUB1 (UniProt Q9UNE7)
inactive: [1] 0.034 | volasertib -0.175 | [2] 0.065 | epoxomicin -0.076 | [3] -0.041 | [4] 0.02 | [5] -0.022 | rosiglitazone -0.013 | [6] 0.281 | [7] -0.041 | saracatinib -0.184 | sotrastaurin -0.23 | alvocidib 0.131 | Tubastatin A 0.096 | [8] -0.1 | defactinib 0.141 | rucaparib 0.391 | [9] 0.079 | encorafenib 0.271 | [10] -0.039

SYVN1 (UniProt Q86TM6)
inactive: [1] 0.076 | volasertib -0.085 | [2] -0.011 | epoxomicin -0.02 | [3] -0.013 | [4] -0.001 | [5] 0.028 | rosiglitazone 0.025 | [6] -0.054 | [7] 0.019 | saracatinib 0.009 | sotrastaurin -0.004 | alvocidib -0.069 | Tubastatin A 0.034 | [8] -0.036 | defactinib -0.01 | rucaparib -0.138 | [9] -0.041 | encorafenib 0.027 | [10] 0.004

STT3B (UniProt Q8TCJ2)
inactive: [1] 0.019 | volasertib 0.034 | [2] -0.004 | epoxomicin 0.004 | [3] -0.032 | [4] 0.072 | [5] -0.042 | rosiglitazone -0.006 | [6] 0.066 | [7] 0.067 | saracatinib 0.031 | sotrastaurin -0.051 | alvocidib 0.077 | Tubastatin A 0.007 | [8] 0.003 | defactinib 0.057 | rucaparib 0.008 | [9] -0.013 | encorafenib 0.053 | [10] 0.011

SZRD1 (UniProt Q7Z422)
inactive: [1] -0.017 | volasertib 0.091 | [2] 0.001 | epoxomicin 0.003 | [3] -0.026 | [4] -0.018 | [5] -0.059 | rosiglitazone -0.059 | [6] 0.011 | [7] -0.026 | saracatinib 0.003 | sotrastaurin 0.04 | alvocidib -0.029 | Tubastatin A 0.034 | [8] -0.058 | defactinib -0.02 | rucaparib -0.012 | [9] -0.009 | encorafenib 0.017 | [10] 0.004

STX16 isoform 2 (UniProt O14662)
inactive: [1] 0 | volasertib -0.108 | [2] 0.06 | epoxomicin -0.11 | [3] 0.021 | [4] -0.034 | [5] 0.022 | rosiglitazone 0.051 | [6] 0.048 | [7] -0.026 | saracatinib -0.003 | sotrastaurin -0.101 | alvocidib -0.069 | Tubastatin A 0.036 | [8] 0.071 | defactinib -0.081 | rucaparib 0.002 | [9] 0.062 | encorafenib 0.042 | [10] -0.144

TAF8 isoform 2 (UniProt Q7Z7C8)
inactive: [1] 0.044 | volasertib 0.052 | [2] 0.011 | epoxomicin 0.041 | [3] 0.045 | [4] -0.062 | [5] 0.006 | rosiglitazone 0 | [6] 0.116 | [7] -0.045 | saracatinib 0.014 | sotrastaurin -0.075 | alvocidib -0.031 | Tubastatin A 0.131 | [8] -0.069 | defactinib -0.119 | rucaparib 0.043 | [9] -0.026 | encorafenib -0.145 | [10] -0.04

TAF15 (UniProt Q92804)
inactive: [1] 0.158 | volasertib 0.086 | [2] -0.017 | epoxomicin -0.137 | [3] 0.024 | [4] 0.026 | [5] -0.075 | rosiglitazone -0.107 | [6] 0.108 | [7] 0.033 | saracatinib -0.053 | sotrastaurin 0.115 | alvocidib 0.138 | Tubastatin A -0.024 | [8] -0.024 | defactinib 0.106 | rucaparib 0.191 | [9] -0.01 | encorafenib -0.04 | [10] -0.012

STX3 (UniProt Q13277)
inactive: [1] -0.016 | volasertib -0.006 | [2] -0.043 | epoxomicin 0.034 | [3] 0.045 | [4] -0.013 | [5] 0.037 | rosiglitazone 0.01 | [6] -0.063 | [7] 0.135 | saracatinib 0.081 | sotrastaurin -0.001 | alvocidib -0.046 | Tubastatin A -0.033 | [8] -0.015 | defactinib -0.051 | rucaparib -0.004 | [9] -0.005 | encorafenib 0.06 | [10] 0

TAF10 (UniProt Q12962)
inactive: [1] 0.049 | volasertib 0.039 | [2] 0 | epoxomicin 0.023 | [3] 0.081 | [4] 0.01 | [5] -0.035 | rosiglitazone -0.013 | [6] -0.034 | [7] 0.183 | saracatinib 0.049 | sotrastaurin 0.027 | alvocidib 0.009 | Tubastatin A -0.107 | [8] 0.005 | defactinib -0.005 | rucaparib -0.043 | [9] -0.061 | encorafenib -0.014 | [10] -0.085
